Source: publication PMC4534796
Results are given in words; binding and its absence hold for the method and conditions named. In cells and extracts the contact can be indirect. Some entries that bind do so weakly or less than the wild type. Tags and fused reporters may be left off the sequences shown.

Amino acid sequences for entries named in this document (tags omitted). A change or cut given only in a name is not applied to a line headed by its entry.
UniProt Q99558, whole entry: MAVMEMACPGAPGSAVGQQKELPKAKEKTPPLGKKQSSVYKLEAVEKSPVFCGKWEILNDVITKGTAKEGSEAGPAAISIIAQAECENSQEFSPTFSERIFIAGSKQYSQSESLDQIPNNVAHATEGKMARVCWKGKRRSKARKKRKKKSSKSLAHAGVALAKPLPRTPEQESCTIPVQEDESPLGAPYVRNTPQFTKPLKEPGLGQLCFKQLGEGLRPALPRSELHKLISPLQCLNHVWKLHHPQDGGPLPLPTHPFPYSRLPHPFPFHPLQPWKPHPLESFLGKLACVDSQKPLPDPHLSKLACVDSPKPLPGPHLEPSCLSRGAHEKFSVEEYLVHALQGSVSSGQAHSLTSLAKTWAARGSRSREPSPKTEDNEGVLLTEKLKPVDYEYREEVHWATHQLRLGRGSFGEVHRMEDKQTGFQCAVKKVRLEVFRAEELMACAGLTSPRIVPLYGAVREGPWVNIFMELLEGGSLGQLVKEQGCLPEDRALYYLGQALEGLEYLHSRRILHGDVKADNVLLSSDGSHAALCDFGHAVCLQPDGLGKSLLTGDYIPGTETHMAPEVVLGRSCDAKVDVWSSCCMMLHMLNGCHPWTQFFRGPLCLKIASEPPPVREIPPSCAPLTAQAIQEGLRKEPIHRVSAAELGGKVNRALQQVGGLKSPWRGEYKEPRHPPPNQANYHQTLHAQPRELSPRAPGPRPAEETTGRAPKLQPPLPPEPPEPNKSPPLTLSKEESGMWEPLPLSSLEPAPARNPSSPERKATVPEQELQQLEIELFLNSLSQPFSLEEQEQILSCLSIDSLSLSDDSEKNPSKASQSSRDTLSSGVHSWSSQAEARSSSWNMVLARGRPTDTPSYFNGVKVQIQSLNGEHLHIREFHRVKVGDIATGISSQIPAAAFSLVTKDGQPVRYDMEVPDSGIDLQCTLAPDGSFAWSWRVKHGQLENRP

Target: T1, Flag-tagged NDRG2 (N-myc downstream-regulated gene 2), transfected in 293T cells (UniProt Q9UN36)
T1 sequence: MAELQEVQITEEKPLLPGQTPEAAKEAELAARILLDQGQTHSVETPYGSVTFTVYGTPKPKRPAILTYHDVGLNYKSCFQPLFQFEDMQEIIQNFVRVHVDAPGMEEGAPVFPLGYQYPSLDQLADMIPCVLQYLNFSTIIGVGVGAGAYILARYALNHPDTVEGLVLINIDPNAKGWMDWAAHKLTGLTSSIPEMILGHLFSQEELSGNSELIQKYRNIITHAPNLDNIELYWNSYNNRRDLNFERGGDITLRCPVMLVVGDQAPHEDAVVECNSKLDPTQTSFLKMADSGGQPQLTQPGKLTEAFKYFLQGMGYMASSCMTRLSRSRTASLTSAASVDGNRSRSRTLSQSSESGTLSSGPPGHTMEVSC
Test: co-IP; lysates of 293T cells co-transfected with HA-NIK (WT or mutant) and Flag-NDRG2; immunoprecipitated with anti-Flag and with anti-HA antibodies, Western blot

## Hemagglutinin (HA)-tagged NIK, wild type (from UniProt Q99558 1-947)
  binding: binds
